Results on 9 molecules are retold here after publication doi:10.1101/2024.06.28.601286.

Protein sequences, listed by entry. Tags and fused reporters are not part of them. Residues count along the entry.
UniProt Q9NYQ7, residues 33-3312: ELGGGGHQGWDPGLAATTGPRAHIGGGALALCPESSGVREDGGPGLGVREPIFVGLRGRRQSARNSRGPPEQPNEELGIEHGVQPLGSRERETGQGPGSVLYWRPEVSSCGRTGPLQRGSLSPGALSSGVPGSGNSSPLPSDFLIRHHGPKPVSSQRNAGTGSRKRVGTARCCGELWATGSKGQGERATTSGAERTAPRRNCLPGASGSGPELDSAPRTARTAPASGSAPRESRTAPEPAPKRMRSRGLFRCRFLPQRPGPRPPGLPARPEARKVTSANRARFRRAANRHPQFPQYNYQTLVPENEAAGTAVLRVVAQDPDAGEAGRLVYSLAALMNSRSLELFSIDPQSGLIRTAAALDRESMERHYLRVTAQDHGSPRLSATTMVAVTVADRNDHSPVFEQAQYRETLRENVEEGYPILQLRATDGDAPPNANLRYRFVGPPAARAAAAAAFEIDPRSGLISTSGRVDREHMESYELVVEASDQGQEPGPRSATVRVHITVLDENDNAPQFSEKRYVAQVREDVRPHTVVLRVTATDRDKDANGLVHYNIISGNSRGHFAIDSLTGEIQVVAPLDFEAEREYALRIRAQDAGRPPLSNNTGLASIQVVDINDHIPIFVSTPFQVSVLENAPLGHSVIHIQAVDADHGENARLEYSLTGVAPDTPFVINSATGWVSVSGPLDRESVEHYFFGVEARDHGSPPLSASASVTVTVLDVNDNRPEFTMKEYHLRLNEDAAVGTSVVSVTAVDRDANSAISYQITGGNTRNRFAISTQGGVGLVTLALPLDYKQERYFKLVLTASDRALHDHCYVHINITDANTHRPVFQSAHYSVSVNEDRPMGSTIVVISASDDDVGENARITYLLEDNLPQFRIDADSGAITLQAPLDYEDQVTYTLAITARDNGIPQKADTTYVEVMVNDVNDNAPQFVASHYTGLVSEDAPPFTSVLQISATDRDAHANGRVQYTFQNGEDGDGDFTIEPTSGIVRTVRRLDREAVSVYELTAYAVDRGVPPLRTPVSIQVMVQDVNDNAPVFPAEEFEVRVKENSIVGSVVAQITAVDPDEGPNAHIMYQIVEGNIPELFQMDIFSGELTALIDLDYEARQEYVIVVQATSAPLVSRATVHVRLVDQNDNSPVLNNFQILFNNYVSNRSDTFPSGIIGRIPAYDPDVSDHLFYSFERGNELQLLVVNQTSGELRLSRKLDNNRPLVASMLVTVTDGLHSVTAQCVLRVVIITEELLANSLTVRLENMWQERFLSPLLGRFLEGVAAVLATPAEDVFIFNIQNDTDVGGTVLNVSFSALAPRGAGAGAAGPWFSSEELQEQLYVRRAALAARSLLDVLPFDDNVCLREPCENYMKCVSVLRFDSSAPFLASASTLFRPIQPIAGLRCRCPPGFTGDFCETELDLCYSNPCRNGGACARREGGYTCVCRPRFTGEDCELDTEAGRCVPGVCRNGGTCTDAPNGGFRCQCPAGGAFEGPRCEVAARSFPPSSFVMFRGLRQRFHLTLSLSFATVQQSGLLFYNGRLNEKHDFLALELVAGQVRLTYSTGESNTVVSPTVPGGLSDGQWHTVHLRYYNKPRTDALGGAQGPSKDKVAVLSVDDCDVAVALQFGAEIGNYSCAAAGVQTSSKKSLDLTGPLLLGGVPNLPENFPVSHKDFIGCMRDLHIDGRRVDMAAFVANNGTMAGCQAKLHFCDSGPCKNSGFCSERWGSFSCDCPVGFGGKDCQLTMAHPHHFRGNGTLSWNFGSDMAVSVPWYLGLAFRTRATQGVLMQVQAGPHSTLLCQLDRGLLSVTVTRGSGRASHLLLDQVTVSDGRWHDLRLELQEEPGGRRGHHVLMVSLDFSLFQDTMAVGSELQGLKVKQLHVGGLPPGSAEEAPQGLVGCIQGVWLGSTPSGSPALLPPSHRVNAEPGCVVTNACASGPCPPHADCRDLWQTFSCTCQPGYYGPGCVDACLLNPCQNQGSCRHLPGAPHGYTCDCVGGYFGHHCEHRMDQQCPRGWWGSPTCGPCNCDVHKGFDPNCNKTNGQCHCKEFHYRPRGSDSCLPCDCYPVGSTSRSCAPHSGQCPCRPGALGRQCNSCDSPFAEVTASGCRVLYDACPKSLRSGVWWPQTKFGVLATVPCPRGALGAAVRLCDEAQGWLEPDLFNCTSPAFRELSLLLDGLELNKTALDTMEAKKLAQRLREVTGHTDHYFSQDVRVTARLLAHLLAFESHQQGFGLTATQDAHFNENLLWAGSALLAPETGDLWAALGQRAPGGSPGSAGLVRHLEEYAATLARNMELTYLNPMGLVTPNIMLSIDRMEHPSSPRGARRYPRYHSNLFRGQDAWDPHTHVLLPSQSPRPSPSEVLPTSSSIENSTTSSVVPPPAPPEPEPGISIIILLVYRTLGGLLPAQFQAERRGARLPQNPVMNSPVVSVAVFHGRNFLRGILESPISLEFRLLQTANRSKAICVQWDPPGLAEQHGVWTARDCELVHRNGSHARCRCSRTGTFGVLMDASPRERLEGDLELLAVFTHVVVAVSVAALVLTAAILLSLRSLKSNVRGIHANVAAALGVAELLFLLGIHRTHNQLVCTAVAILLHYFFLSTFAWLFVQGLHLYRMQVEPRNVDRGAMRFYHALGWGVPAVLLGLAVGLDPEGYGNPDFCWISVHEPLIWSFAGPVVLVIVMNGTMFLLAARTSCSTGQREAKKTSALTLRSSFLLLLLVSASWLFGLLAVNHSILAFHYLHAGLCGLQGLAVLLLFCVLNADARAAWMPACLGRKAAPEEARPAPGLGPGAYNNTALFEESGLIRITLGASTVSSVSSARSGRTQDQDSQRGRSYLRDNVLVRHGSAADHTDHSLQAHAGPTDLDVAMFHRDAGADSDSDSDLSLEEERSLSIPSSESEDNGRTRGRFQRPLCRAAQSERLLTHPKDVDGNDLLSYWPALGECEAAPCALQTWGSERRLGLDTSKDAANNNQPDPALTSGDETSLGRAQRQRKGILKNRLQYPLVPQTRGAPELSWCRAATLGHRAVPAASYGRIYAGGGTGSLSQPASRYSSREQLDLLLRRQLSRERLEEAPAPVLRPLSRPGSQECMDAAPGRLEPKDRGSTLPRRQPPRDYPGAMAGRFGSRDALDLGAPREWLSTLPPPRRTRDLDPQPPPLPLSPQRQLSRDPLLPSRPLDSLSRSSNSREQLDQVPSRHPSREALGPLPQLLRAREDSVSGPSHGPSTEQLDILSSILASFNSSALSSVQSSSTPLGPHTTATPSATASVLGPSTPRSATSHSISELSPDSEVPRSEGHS
UniProt Q5SQI0: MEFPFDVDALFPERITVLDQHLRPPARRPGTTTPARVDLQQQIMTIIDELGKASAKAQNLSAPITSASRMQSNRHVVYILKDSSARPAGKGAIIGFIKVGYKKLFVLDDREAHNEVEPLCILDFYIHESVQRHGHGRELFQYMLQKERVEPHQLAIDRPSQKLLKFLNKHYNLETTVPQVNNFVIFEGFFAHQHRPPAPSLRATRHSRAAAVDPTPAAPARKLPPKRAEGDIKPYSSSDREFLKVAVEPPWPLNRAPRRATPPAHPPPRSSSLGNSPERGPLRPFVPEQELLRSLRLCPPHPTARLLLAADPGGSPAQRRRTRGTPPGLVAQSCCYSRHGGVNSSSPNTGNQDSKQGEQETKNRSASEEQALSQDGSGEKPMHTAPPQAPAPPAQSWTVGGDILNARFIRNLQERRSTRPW
UniProt Q07157: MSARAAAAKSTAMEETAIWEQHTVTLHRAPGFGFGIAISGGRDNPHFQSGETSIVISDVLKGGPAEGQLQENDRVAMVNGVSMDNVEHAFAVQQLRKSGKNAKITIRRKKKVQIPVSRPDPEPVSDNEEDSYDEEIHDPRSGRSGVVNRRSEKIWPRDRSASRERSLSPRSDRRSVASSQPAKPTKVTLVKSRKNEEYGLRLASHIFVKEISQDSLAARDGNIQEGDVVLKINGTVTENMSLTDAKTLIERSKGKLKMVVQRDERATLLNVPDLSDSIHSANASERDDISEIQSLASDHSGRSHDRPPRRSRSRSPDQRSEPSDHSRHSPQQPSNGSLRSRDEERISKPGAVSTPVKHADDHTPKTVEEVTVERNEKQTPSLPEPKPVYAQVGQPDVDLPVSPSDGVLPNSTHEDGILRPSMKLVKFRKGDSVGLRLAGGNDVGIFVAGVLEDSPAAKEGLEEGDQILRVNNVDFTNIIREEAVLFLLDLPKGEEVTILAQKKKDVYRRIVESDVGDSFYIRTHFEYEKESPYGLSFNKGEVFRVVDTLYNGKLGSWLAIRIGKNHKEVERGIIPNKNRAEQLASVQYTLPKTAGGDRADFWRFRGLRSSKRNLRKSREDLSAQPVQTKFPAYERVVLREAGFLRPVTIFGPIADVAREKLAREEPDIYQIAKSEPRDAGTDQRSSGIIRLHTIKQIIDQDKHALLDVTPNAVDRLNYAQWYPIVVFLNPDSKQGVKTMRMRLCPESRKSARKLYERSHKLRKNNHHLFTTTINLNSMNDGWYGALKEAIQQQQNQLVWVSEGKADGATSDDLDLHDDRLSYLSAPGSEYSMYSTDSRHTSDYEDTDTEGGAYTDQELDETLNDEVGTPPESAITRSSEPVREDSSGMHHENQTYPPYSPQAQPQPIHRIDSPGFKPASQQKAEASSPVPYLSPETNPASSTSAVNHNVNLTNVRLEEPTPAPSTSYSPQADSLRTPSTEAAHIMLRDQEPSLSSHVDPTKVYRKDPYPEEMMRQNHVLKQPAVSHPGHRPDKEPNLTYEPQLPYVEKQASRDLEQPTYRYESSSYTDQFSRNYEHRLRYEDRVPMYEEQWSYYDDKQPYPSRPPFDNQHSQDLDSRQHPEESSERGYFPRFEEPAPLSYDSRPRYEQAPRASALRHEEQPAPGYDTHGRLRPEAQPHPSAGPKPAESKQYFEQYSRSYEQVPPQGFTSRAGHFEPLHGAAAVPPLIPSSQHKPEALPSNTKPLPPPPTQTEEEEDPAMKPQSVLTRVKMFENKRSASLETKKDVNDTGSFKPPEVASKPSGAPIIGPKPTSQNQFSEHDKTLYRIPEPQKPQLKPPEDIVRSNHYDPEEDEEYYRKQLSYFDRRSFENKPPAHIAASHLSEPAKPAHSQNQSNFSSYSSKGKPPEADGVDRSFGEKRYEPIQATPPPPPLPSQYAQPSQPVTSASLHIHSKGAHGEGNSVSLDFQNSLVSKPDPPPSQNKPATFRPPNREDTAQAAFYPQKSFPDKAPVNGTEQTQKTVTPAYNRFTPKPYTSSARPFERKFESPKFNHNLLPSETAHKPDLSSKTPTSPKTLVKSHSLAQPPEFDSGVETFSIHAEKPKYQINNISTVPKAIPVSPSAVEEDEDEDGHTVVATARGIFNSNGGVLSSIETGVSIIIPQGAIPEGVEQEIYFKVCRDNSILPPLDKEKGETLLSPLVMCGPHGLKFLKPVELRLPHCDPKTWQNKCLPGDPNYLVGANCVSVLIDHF
UniProt Q92598: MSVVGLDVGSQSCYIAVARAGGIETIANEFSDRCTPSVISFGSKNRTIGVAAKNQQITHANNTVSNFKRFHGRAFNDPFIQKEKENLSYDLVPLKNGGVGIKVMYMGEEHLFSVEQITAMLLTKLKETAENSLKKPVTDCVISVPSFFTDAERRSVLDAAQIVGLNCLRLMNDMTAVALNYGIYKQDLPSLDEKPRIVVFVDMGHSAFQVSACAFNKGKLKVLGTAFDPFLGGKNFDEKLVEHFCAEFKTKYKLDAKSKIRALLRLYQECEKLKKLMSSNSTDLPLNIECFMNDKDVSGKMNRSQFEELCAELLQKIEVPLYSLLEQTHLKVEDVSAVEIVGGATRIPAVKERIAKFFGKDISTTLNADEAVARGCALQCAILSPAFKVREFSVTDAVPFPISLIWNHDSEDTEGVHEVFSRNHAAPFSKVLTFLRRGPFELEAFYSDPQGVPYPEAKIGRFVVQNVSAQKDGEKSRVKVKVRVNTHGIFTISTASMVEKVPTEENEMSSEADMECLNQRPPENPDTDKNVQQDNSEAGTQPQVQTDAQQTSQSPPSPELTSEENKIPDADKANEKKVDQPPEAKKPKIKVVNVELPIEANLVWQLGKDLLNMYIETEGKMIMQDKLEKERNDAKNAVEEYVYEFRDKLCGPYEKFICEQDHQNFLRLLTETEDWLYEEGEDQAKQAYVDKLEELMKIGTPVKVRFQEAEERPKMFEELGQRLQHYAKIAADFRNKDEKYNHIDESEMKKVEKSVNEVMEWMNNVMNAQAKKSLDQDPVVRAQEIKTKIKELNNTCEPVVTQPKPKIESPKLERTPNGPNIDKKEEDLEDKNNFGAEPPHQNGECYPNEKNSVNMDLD
UniProt P62491: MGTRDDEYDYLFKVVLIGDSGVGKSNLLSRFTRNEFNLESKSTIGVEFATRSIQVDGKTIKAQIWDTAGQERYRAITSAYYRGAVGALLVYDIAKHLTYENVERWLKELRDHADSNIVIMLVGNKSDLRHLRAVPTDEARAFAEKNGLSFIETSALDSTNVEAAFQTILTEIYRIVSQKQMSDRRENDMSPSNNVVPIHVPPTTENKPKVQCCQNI

Where two headings read alike, the source gives them in different places. No constants are given. Whether binding was seen depends on the method and setting. In cells and extracts the contact can be indirect. Here binding means that the protein was enriched with, or labelled near, the bait; the list need not be complete.

Holding throughout (assay): proximity labelling
In experiment [1] the target is BirA-0N4R^HA (human) (UniProt P10636).
Experiment [2] concerns the target BirA-0N3R^HA (human) (UniProt P10636).
Experiment [3] concerns the target BirA-0N4R^HA (human) (UniProt P10636). This is another data set of the same source.
The target of experiment [4] is BirA-0N3R^HA (human) (UniProt P10636). The source holds these as a separate data set.

As to “G-protein coupled receptor CELSR3 (from UniProt Q9NYQ7 33-3312)”, the binding result with BirA-0N4R^HA (human) [1] and in the experiment with BirA-0N3R^HA (human) [2] was “binds” throughout. In the case of “ATAT1 (from UniProt Q5SQI0 1-421) (enzyme)”, in the experiment with BirA-0N4R^HA (human) [1], the binding entry is “binds”. With TJP1 (from UniProt Q07157 1-1748), the binding entry with BirA-0N3R^HA (human) [2] was “binds”. For “heat shock protein HSPH1 (from UniProt Q92598 1-858)”, the binding result with BirA-0N4R^HA (human) [1] and with BirA-0N3R^HA (human) [2] was “binds” throughout. Take “GPI (from UniProt P06744 1-558) (enzyme)”: the binding result with BirA-0N4R^HA (human) [1] is on record as “binds”.

Take RAB11A (from UniProt P62491 1-216): the binding entry with BirA-0N4R^HA (human) [1] was “binds”.

B1: MARCKS (protein, UniProt P29966 1-332)
chain: MGAQFSKTAAKGEAAAERPGEAAVASSPSKANGQENGHVKVNGDASPAAAESGAKEELQANGSAPAADKEEPAAAGSGAASPSAAEKGEPAAAAAPEAGASPVEKEAPAEGEAAEPGSPTAAEGEAASAASSTSSPKAEDGATPSPSNETPKKKKKRFSFKKSFKLSGFSFKKNKKEAGEGGEAEAPAAEGGKDEAAGGAAAAAAEAGAASGEQAAAPGEEAAAGEEGAAGGDPQEAKPQEAAVAPEKPPASDETKAAEEPSKVEEKKAEEAGASAAACEAPSAAGPGAPPEQEAAPAEEPAAAAASSACAAPSQEAQPECSPEAPPAEAAE
As to B1, the binding entry in the experiment with BirA-0N4R^HA (human) [3] was “binds”.

B2: SH3PXD2B (protein, UniProt A1X283 1-911)
chain: MPPRRSIVEVKVLDVQKRRVPNKHYVYIIRVTWSSGSTEAIYRRYSKFFDLQMQMLDKFPMEGGQKDPKQRIIPFLPGKILFRRSHIRDVAVKRLIPIDEYCKALIQLPPYISQCDEVLQFFETRPEDLNPPKEEHIGKKKSGGDQTSVDPMVLEQYVVVANYQKQESSEISLSVGQVVDIIEKNESGWWFVSTAEEQGWVPATCLEGQDGVQDEFSLQPEEEEKYTVIYPYTARDQDEMNLERGAVVEVIQKNLEGWWKIRYQGKEGWAPASYLKKNSGEPLPPKPGPGSPSHPGALDLDGVSRQQNAVGREKELLSSQRDGRFEGRPVPDGDAKQRSPKMRQRPPPRRDMTIPRGLNLPKPPIPPQVEEEYYTIAEFQTTIPDGISFQAGLKVEVIEKNLSGWWYIQIEDKEGWAPATFIDKYKKTSNASRPNFLAPLPHEVTQLRLGEAAALENNTGSEATGPSRPLPDAPHGVMDSGLPWSKDWKGSKDVLRKASSDMSASAGYEEISDPDMEEKPSLPPRKESIIKSEGELLERERERQRTEQLRGPTPKPPGVILPMMPAKHIPPARDSRRPEPKPDKSRLFQLKNDMGLECGHKVLAKEVKKPNLRPISKSKTDLPEEKPDATPQNPFLKSRPQVRPKPAPSPKTEPPQGEDQVDICNLRSKLRPAKSQDKSLLDGEGPQAVGGQDVAFSRSFLPGEGPGRAQDRTGKQDGLSPKEISCRAPPRPAKTTDPVSKSVPVPLQEAPQQRPVVPPRRPPPPKKTSSSSRPLPEVRGPQCEGHESRAAPTPGRALLVPPKAKPFLSNSLGGQDDTRGKGSLGPWGTGKIGENREKAAAASVPNADGLKDSLYVAVADFEGDKDTSSFQEGTVFEVREKNSSGWWFCQVLSGAPSWEGWIPSNYLRKKP
For B2, the binding entry with BirA-0N3R^HA (human) [4] is given as “binds”.

B3: RALA (protein, UniProt P11233 1-206)
chain: MAANKPKGQNSLALHKVIMVGSGGVGKSALTLQFMYDEFVEDYEPTKADSYRKKVVLDGEEVQIDILDTAGQEDYAAIRDNYFRSGEGFLCVFSITEMESFAATADFREQILRVKEDENVPFLLVGNKSDLEDKRQVSVEEAKNRAEQWNVNYVETSAKTRANVDKVFFDLMREIRARKMEDSKEKNGKKKRKSLAKRIRERCCIL
As to B3, the binding entry with BirA-0N4R^HA (human) [3] is “binds”.
